No constants are given. Whether binding was seen depends on the method and setting. Some binding calls cover weakened binding; strength is not graded here.
Key:
[1] = molecular target: ALK expressed on CHO-K1 clone A24 (UniProt Q9UM73); assay: flow cytometry; FAM150B-His protein on CHO-K1 clone A24, detected with PE anti-His tag antibody
[2] = molecular target: ALK 001P; assay: SPR, Biacore 8K; receptor-Fc captured on Protein A chip, ligand as analyte
[3] = molecular target: LTK 001P; assay: as above
[4] = molecular target: LTK expressed on CHO-K1 clone L10 (UniProt P29376); assay: flow cytometry; FAM150B-His protein on CHO-K1 clone L10, detected with PE anti-His tag antibody
[5] = molecular target: LTK 001P; assay: SPR, Biacore 8K; LTK 001P captured on Protein A chip, ligand as analyte, 6 concentrations from 19.9 nM
[6] = molecular target: ALK 001P; assay: SPR, Biacore 8K
[7] = molecular target: LTK 001P; assay: SPR, Biacore 8K
[8] = molecular target: ALK 001P; assay: SPR, Biacore 8K; ALK 001P captured on Protein A chip, ligand as analyte, 6 concentrations from 19.9 nM

Amino acid sequences for entries named in this document (tags omitted). Residues count along the entry.
UniProt Q9UM73, residues 19-1620: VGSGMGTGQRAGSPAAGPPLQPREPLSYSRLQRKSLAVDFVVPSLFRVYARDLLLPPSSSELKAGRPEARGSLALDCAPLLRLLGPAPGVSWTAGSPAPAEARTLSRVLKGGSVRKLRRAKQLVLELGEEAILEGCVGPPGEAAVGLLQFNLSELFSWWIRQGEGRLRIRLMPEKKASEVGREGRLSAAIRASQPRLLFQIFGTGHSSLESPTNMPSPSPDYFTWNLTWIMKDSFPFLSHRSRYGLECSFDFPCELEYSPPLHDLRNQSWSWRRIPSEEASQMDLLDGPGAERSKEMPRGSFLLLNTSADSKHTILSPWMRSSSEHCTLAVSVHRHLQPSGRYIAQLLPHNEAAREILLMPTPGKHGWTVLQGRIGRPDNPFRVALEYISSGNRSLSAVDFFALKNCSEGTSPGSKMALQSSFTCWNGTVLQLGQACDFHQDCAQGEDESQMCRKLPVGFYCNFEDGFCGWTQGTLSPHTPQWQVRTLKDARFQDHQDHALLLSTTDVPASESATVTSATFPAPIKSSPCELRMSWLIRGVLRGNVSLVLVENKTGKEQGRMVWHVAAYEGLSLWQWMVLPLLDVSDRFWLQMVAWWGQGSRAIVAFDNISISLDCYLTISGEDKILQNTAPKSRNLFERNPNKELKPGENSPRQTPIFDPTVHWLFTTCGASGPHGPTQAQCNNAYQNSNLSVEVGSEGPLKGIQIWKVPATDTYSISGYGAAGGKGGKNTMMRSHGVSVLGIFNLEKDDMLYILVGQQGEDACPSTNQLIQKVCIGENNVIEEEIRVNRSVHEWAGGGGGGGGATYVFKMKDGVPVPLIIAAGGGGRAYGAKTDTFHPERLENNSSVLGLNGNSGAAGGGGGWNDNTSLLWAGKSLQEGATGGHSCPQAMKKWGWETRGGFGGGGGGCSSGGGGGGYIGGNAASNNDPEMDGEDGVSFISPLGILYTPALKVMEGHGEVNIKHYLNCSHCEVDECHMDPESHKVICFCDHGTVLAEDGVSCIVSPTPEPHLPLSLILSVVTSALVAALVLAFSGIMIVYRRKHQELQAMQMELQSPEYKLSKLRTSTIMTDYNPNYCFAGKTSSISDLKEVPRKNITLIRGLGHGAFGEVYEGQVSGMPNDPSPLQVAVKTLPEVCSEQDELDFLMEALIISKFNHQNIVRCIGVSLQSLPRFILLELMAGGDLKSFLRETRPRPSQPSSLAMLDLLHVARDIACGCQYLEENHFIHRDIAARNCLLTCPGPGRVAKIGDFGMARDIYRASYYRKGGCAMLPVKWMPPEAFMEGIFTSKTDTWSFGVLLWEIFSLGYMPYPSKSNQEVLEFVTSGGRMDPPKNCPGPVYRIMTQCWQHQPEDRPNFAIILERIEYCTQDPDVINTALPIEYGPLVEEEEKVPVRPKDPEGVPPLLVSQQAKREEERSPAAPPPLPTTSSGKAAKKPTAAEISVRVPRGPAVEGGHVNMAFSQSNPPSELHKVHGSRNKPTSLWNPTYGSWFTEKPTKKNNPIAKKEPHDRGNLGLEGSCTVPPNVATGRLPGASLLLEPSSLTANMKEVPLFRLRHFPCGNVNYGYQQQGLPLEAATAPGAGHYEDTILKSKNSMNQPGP
UniProt P29376, residues 17-864: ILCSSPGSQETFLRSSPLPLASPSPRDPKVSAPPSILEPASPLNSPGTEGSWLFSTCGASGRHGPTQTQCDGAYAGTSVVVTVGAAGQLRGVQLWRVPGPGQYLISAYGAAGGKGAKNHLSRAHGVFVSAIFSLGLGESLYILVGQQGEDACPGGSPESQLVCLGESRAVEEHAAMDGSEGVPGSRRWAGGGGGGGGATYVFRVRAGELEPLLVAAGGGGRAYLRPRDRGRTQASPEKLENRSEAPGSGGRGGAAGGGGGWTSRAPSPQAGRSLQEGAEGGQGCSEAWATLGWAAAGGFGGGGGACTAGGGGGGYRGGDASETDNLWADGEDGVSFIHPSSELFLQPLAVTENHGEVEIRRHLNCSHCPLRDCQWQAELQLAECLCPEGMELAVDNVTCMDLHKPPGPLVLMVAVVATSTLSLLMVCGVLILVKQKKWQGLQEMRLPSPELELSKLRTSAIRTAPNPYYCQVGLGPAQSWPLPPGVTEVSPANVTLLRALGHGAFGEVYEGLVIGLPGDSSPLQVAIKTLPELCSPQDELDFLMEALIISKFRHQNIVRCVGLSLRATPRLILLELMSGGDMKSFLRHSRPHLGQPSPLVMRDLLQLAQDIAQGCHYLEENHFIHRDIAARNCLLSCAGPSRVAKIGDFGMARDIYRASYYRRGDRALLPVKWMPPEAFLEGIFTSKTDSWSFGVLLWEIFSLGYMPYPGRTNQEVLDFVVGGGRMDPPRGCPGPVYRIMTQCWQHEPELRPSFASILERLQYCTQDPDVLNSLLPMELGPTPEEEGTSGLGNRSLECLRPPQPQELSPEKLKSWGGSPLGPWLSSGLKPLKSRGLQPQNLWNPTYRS

Measured: binding

B1: Ligand 002P (ligand)
chain: DGHHHHHHGSLQDSEVNQEAKPEVKPEVKPETHINLKVSDGSSEIFFKIKKTTPLRRLMEAFAKRQGKEMDSLTFLYDGIEIQADQTPEDLDMEDNDIIEAHREQIGGLEVLFQGPAEAAGLGPSPEQRVEIVPRDLRMKDKFLKHLTGPLYFSPKCSKHFHRLYHNTRDCTIPAYYKRCARLLTRLAVSPVCMEDKQ
binds: all assays above

Source: patent US20220249561A1
